From US10512265B2, “Pesticidally active heterocyclic derivatives with sulphur containing substituents” (Syngenta Participations AG, priority 2015, dated 2019)
Some of these results come from one statement about several compounds together.

system: Anopheles stephensi (Indian malaria mosquito); assay: Example B12: activity against Anopheles stephensi, dry deposits in tissue culture plates; assay type: in vivo; details: 200 ppm in ethanol, dry deposit; adult females; after 48 h and/or 24 h

| Structure (SMILES) | control of Anopheles stephensi |
| --- | --- |
| CCS(=O)(=O)c1cc(-c2ccc(Cl)cc2)cnc1-c1ncc(-c2ccc(C(F)(F)F)cc2)n1C [Compound P12] | at least 80% |
| CCS(=O)(=O)c1cc(-c2ccc(Cl)cc2)cnc1-c1ncc(-c2ccc(SC(F)(F)F)cc2)n1C [Compound P7] | at least 80% |
| CCS(=O)(=O)c1cc(-c2ccc(Cl)cc2)cnc1-c1ncc(-c2ccc(C(F)(F)F)nc2)n1C [Compound P5] | at least 80% |
| CCS(=O)(=O)c1cc(-c2ccc(F)cc2)cnc1-c1ncc(-c2ccc(C(F)(F)F)nc2)n1C [Compound P3, 3-ethylsulfonyl-5-(4-fluorophenyl)-2-[1-methyl-5-[6-(trifluoromethyl)-3-pyridyl]imidazol-2-yl]pyridine] | at least 80% |
| CCS(=O)(=O)c1cc(-c2ncc(Cl)cn2)cnc1-c1ncc(-c2ccc(C(F)(F)F)nc2)n1C [Compound P11] | at least 80% |
| CCS(=O)(=O)c1cc(-c2ccc(Cl)cc2)cnc1-c1ncc(-c2ccc(S(=O)(=O)C(F)(F)F)cc2)n1C [Compound P9] | at least 80% |
